According to paper PMC13226657 (The EMBO Journal, 2026):
No constants are given. Whether binding was seen depends on the method and setting. Some results given as binding are weak or reduced against the parent protein; the word gives no strength.

Molecular target: SLC1A1g-X, Hg2+-crosslinked K269C/W441C mutant of SLC1A1g (human) (UniProt P43005)
Test: cryo-EM structure; SLC1A1g-X (Hg2+-crosslinked K269C/W441C) in 0.01% GDN, 300 mM KCl, with 100 µM compound 3e; refined with C3 symmetry, then symmetry expansion; both purified

binding: binds
B1: SLC1A1g-X, Hg2+-crosslinked K269C/W441C mutant of SLC1A1g (protein, UniProt P43005 1-524)
chain: MGKPARKGCEWKRFLKNNWVLLSTVAAVVLGITTGVLVREHSNLSTLEKFYFAFPGEILMRMLKLIILPLIISSMITGVAALDSNVSGKIGLRAVVYYFCTTLIAVILGIVLVVSIKPGVTQKVGEIARTGSTPEVSTVDAMLDLIRNMFPENLVQACFQQYKTKREEVKPPSDPEMTMTEESFTAVMTTAISKTKTKEYKIVGMYSDGINVLGLIVFCLVFGLVIGKMGEKGQILVDFFNALSDATMKIVQIIMCYMPLGILFLIAGCIIEVEDWEIFRKLGLYMATVLTGLAIHSIVILPLIYFIVVRKNPFRFAMGMAQALLTALMISSSSATLPVTFRCAEENNQVDKRITRFVLPVGATINMDGTALYEAVAAVFIAQLNDLDLGIGQIITISITATSASIGAAGVPQAGLVTMVIVLSAVGLPAEDVTLIIAVDCLLDRFRTMVNVLGDAFGTGIVEKLSKKELEQMDVSSEVNIVNPFALESTILDNEDSDTKKSYVNGGFAVDKSDTISFTQTSQF
modifications: Hg2+-mediated cross-linking of K269C/W441C (20-molar excess of HgCl2)
